Positions count from the first letter of the chain named. These are yes or no findings as the source states them, for the method shown. A result given as binding can be weak or reduced; the word gives no strength.
B1: BG87P-21 (antibody, V domains shown)
VH: QVQLVQSGAEVKKPGASVKVSCKASGYSFTDYHINWVRQAPGQRLEWMGWIYPGSGYTKYNEKFKGRVTITRDTSASTAYMELSSLRSEDTAVYYCARSGIYHYVSSYYFDHWGKGTTVTVSS
VL: DIQMTQSPSTLSASVGDRVTITCKASQDVGTAVAWYQQKPGKAPKLLIYWASTRHTGVPSRFSGSGSGTEFTLTISSLQPDDFATYYCQQYSSYTFGGGTKVEIK
B2: BG87P-34 (antibody, V domains shown)
VH: EVQLQESGGGLVQPGGSLRLSCAASGYSFSDYHINWVRQAPGKGLEWVGYIYPGSGHTKYNEKFKGRFTISRDTSSNTAYLQMNSLRAEDTAVYYCARSGIYHYVSSYYFDHWGQGTLVTVSS
VL: B1 VL with T10S, V29A, T31S, E70D, D81E, V102L
B3: BG87P-33 (antibody, V domains shown)
VH: B2 VH with S30T, G49S, S76K
VL: B1 VL with V29A, T31S
B4: anti-CLDN6 chimeric BG87P (antibody, V domains shown)
VH: QIQLQQSGPELVKPGASVKISCKASGYSFTDYHINWVKQRPGQGLEWIGWIYPGSGYTKYNEKFKVKATLTVDTSSSTAYMHLTSLTSEDSAVYFCARSGIYHYVSSYYFDHWGQGTTLTVSS
VL: DIVMTQSHTFMSTSVGDRVSITCKASQDVGTAVAWYQQKPGQSPKLLIYWASTRHTGVPDRFTGSGSGTDFTLTISNVQSEDLADYFCQQYSSYTFGGGTKLEIK
B5: BG87P (antibody, V domains shown)
VH: B4 VH
VL: B4 VL

Key:
cyno CLDN6 (cyno) [1] = experiment: flow cytometry on CHOK1 cells expressing cyno CLDN6, MFI(PE)
cyno CLDN6 (cyno) [2] = experiment: flow cytometry, CHOK1-cyno CLDN6 cells (FIG. 1I)
cyno CLDN6 (cyno) [3] = experiment: flow cytometry, CHOK1 stable cells

Binder	binding (cyno CLDN6 (cyno) [1])	binding (cyno CLDN6 (cyno) [2])	binding (cyno CLDN6 (cyno) [3])
B1	binds		
B2	binds	binds	
B3	binds		
B4	binds		
B5			binds

— patent publication US20240301061A1
